Measured values as given in the supplement of paper PMC7877785.
± gives the uncertainty stated by the source. Many of these values have a large error.

Test: self-splicing fitness, log relative to wild type (ln ratio); higher = more splicing; Tetrahymena group I intron in knt gene, E. coli kanamycin selection, DiMSum; sequences stand for … in CUCUCU…GGAGGGAAAAGUUAUCAGGCAUGCACCUGGUAGCUAGUCUUUAAACCAAUAGAUUGCAUCGGUUUAAAAGGCAAGACCGUCAAAUUGCGGGAAAGGGGUCAACAGCCGUUCAGUACCAAGUCUCAGGGGAAACUUUGAGAUGGCCUUGCAAAGGGUAUGGUAAUAAGCUGACGGACAUGGUCCUAACCACGCAGCCAAGUCCUAAGUCAACAGAUCUUCUGUUGAUAUGGAUGCAGUUCACAGACUAAAUGUCGGUCGGGGAAGAUGUAUUCUUCUCAUAAGAUAUAGUCGGACCUCUCCUUAAUGGGAGCUAGCGGAUGAAGUGAUGCAACACUGGAGCCGCUGGGAACUAAUUUGUAUGCGAAAGUAUAUUGAUUAGUUUUGGAGUACUCGUGGUCG
How it was run: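 Library with all eight P1ex-region intron nucleotides randomised, intron inside the knt kanamycin-resistance gene on pET-22b(+), in E. coli BL21(DE3). Cells grew overnight at 37°C or 30°C on LB agar with or without 25 μg/mL kanamycin (plus 100 μg/mL carbenicillin, 50 μM IPTG, 0.2% rhamnose), in six replicate transformations. Pooled colonies were amplicon-sequenced on Illumina HiSeq 2500. DiMSum fitness is the error-weighted combination of wild-type-normalised replicate fold changes, kanamycin versus none.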

| Sequence | self-splicing fitness (ln) (30 °C) | self-splicing fitness (ln) (37 °C) |
| --- | --- | --- |
| UACAAGCAAUAUUACGAUCA | -0.336 ± 0.079 | 0.387 ± 0.11 |
| UGUCAGCAAUAUUACGUCUG | -0.693 ± 0.1 | -0.104 ± 0.11 |
| GGGAAGCAAUAUUACGACCG | 0.507 ± 0.5 | 1.01 ± 0.65 |
| GAGUAGCAAUAUUACGGCGA | -0.645 ± 0.16 | -0.441 ± 0.2 |
| CAGGAGCAAUAUUACGGGCC | -3.76 ± 0.42 | -4 ± 1 |
| GACGAGCAAUAUUACGAGAA | -1.55 ± 0.76 | -2.77 ± 1.1 |
| UGUAAGCAAUAUUACGCGUC | -3.31 ± 0.25 | -2.65 ± 0.32 |
| CUAUAGCAAUAUUACGCCCU | -4.16 ± 0.73 | -2.3 ± 0.76 |
| GUUGAGCAAUAUUACGCCUG | -3.02 ± 0.51 | – |
| CCCCAGCAAUAUUACGAUAA | -4.64 ± 0.51 | – |
| ACCGAGCAAUAUUACGCUUC | – | -3.11 ± 0.52 |
| CAGUAGCAAUAUUACGUGGC | -2.97 ± 0.28 | -2.36 ± 0.29 |
| CCGUAGCAAUAUUACGUCAA | -3.98 ± 0.72 | – |
| CAGCAGCAAUAUUACGAGUG | -1.54 ± 0.056 | -0.155 ± 0.074 |
| CACGAGCAAUAUUACGCGGC | -4.86 ± 0.59 | – |
| UCAGAGCAAUAUUACGACUA | -1.36 ± 0.64 | -0.982 ± 0.84 |
| CGAUAGCAAUAUUACGAUAC | -4.5 ± 0.59 | – |
| UCAGAGCAAUAUUACGGAUA | – | -2.57 ± 0.54 |
| GGGGAGCAAUAUUACGUUAA | -2.53 ± 0.4 | -1.95 ± 0.35 |
| GCAAAGCAAUAUUACGAGUG | -2.57 ± 0.097 | -0.371 ± 0.092 |

| Sequence | self-splicing fitness (ln) (30 °C) | self-splicing fitness (ln) (37 °C) |
| --- | --- | --- |
| GGGCAGCAAUAUUACGAGAA | -3.05 ± 0.47 | -1.87 ± 0.3 |
| CCUCAGCAAUAUUACGCCCC | -3.13 ± 1 | – |
| CAUGAGCAAUAUUACGGUAA | -3.59 ± 0.6 | – |
| GCGGAGCAAUAUUACGCUCG | – | -3.17 ± 0.53 |
| UGCGAGCAAUAUUACGGGGC | – | -3.47 ± 1 |
| UUCGAGCAAUAUUACGAUUG | -3.92 ± 0.73 | – |
| GACGAGCAAUAUUACGCAUC | -4.16 ± 1 | – |
| CAGGAGCAAUAUUACGCACC | -0.828 ± 0.58 | -1.76 ± 0.85 |
| UGCCAGCAAUAUUACGCAGC | -3.82 ± 1 | – |
| UGAGAGCAAUAUUACGUAGC | -3.46 ± 1.1 | – |
| CGCGAGCAAUAUUACGAGAC | -0.224 ± 0.53 | -2.4 ± 0.57 |
| GCGAAGCAAUAUUACGCAGA | – | -3.52 ± 0.6 |
| AUUGAGCAAUAUUACGCGGC | – | -2.96 ± 0.53 |
| GGGUAGCAAUAUUACGCACA | -0.833 ± 0.2 | 0.402 ± 0.22 |
| AGACAGCAAUAUUACGGAAC | -4.87 ± 0.51 | – |
| UGGUAGCAAUAUUACGUCCC | -0.754 ± 0.88 | 1.51 ± 0.75 |
| UGAGAGCAAUAUUACGCCCA | – | -1.15 ± 0.5 |
| UCGUAGCAAUAUUACGAACC | -3.17 ± 1 | – |
| AUGGAGCAAUAUUACGCUAU | -3.89 ± 0.15 | -2.4 ± 0.22 |
| UAAGAGCAAUAUUACGUCCC | – | -3.03 ± 0.53 |

| Sequence | self-splicing fitness (ln) (30 °C) | self-splicing fitness (ln) (37 °C) |
| --- | --- | --- |
| UAUGAGCAAUAUUACGACCU | -2.36 ± 1.2 | -1.49 ± 0.6 |
| CGCGAGCAAUAUUACGCUCG | -3.48 ± 0.54 | -1.19 ± 0.73 |
| CUUAAGCAAUAUUACGGCCA | – | -2.71 ± 0.75 |
| UCGUAGCAAUAUUACGAAUG | -2.01 ± 0.29 | -1.76 ± 0.7 |
| CGGGAGCAAUAUUACGGGGC | -4.1 ± 0.52 | – |
| UGAAAGCAAUAUUACGAAAC | -3.66 ± 0.73 | – |
| UCCUAGCAAUAUUACGCCUU | -2.98 ± 0.33 | -2.34 ± 0.35 |
| UAGUAGCAAUAUUACGGAGG | -3.49 ± 0.54 | – |
| UGCGAGCAAUAUUACGUGGC | -2.81 ± 0.56 | -2.8 ± 0.61 |
| GGGAAGCAAUAUUACGAAAG | -2.23 ± 0.51 | – |
| GCGCAGCAAUAUUACGCUGC | -4.14 ± 0.59 | – |
| UAAUAGCAAUAUUACGAGAG | -3.51 ± 0.52 | – |
| CUCUAGCAAUAUUACGCGGA | -3.1 ± 0.4 | -1.9 ± 0.34 |
| GGUGAGCAAUAUUACGACAG | – | -3.11 ± 0.6 |
| UAUGAGCAAUAUUACGAGUC | -3.52 ± 0.74 | – |
| GUUGAGCAAUAUUACGAACC | – | -0.656 ± 0.82 |
| GGGAAGCAAUAUUACGCUCU | -2.55 ± 0.78 | – |
| CUGUAGCAAUAUUACGAACU | – | -2.73 ± 0.54 |
| CCGCAGCAAUAUUACGGAUC | -4.17 ± 0.59 | – |

A few values from above.
UAAUAGCAAUAUUACGAGAG – self-splicing fitness (ln) (30 °C): -3.51 ± 0.52
UAUGAGCAAUAUUACGACCU – self-splicing fitness (ln) (37 °C): -1.49 ± 0.6

Pulled one by one from the list above, two records:

| Sequence | self-splicing fitness (ln) (30 °C) | self-splicing fitness (ln) (37 °C) |
| --- | --- | --- |
| UUCGAGCAAUAUUACGAUUG | -3.92 ± 0.73 | – |
| UCAGAGCAAUAUUACGACUA | -1.36 ± 0.64 | -0.982 ± 0.84 |
